# PubChem BioAssay AID686943, Drosophila RNAi Screening Center – 2013
# Aim: 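Knockdowns that increase or decrease active ERK after insulin receptor stimulation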 (primary screen)
# System: Drosophila S2R+ haemocyte-like cells expressing YFP-tagged ERK (Rolled)
# Reagents: long dsRNA against Drosophila genes
# Treatment: insulin stimulation versus unstimulated cells; dose and duration not given
# Measured: 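Antibody staining for doubly phosphorylated ERK divided by ERK-YFP signal, as plate z-scores, in insulin-treated and untreated cells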
# Reading the numbers: replicate 1, z-score of dpERK with insulin and replicate 2, z-score of dpERK with insulin: higher = more active ERK per ERK-YFP after insulin
# The deposit covers about 23,000 reagents; below is an unselected part of those with a known target gene and a result. 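Extra replicates exist only for a retested subset of genes; insulin dose and duration not given; both raised and lowered dpERK matter.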 Names joined by + are all predicted targets of the reagent. Further read-outs or replicates are left out here. No sequences are given here. The record does not give: the amount of reagent, the time to read-out.
gene,amplicon,"replicate 1, z-score of dpERK with insulin","replicate 2, z-score of dpERK with insulin"
Obp99c (GeneID 43494),DRSC16262,-0.44,-0.17
Nprl2 (GeneID 32677),DRSC20153,0.78,1.58
Mal-A2 (GeneID 35825),DRSC07460,0.42,0.36
CG17343 (GeneID 35180),DRSC02606,-0.14,1.9
CG17343 (GeneID 35180),DRSC22807,-0.22,-0.54
CG6836 (GeneID 40070),DRSC10722,-0.07,-0.63
Osi8 (GeneID 40762),DRSC12277,-0.1,-0.75
CG13014 (GeneID 32626),DRSC19533,0.54,0.17
Ythdc1 (GeneID 38420),DRSC08141,-1.01,-1.39
trv (GeneID 43362),DRSC13846,-0.13,-0.2
trv (GeneID 43362),DRSC14559,1.42,-0.19
trv (GeneID 43362),DRSC14560,1.63,-0.12
trv (GeneID 43362),DRSC14561,1,0.01
CG32645 (GeneID 32264),DRSC19683,-0.28,0.02
CG32645 (GeneID 32264),DRSC19889,0.31,0.69
TAF1B (GeneID 41242),DRSC16001,0.2,0.22
BORCS5 (GeneID 32145),DRSC19427,0.08,0.23
alpha-Est9 (GeneID 40897),DRSC12621,-0.3,0.53
CG32987 (GeneID 318273),DRSC22373,-2.27,-0.74
CG42821 (GeneID 3885579),DRSC13231,-0.12,0.52
CG12702 (GeneID 32993),DRSC19487,0.17,0.26
koi (GeneID 35594),DRSC04980,-0.22,0.11
koi (GeneID 35594),DRSC04991,-0.93,0.14
Paf-AHalpha (GeneID 32529),DRSC20267,0.48,0.44
simj (GeneID 39212),DRSC10942,-1.05,-0.99
Gpo3 (GeneID 34776),DRSC01978,0.71,-0.78
CG15554 (GeneID 43680),DRSC15092,0.62,0.02
PH4alphaNE3 (GeneID 326114),DRSC16541,-1.53,0.21
chinmo (GeneID 33343),DRSC00292,0.27,0.23
chinmo (GeneID 33343),DRSC00485,-1.51,-0.18
chinmo (GeneID 33343),DRSC00509,-2.14,-4.79
chinmo (GeneID 33343),DRSC22413,-0.86,-1.05
CG1910 (GeneID 43741),DRSC15400,-0.09,0.59
CG8677 (GeneID 35397),DRSC03107,0.67,0.94
Trm7-32 (GeneID 42056),DRSC15741,1.63,0.82
Cpr56F (GeneID 37299),DRSC07326,0.23,0.22
He + NimB5,DRSC22876,-0.6,0.44
CG13891 (GeneID 38066),DRSC08361,0.3,1.18
Phk-3 (GeneID 37997),DRSC04547,0.48,0.09
CG33543 (GeneID 3346207),DRSC00384,0.24,-0.46
CG33543 (GeneID 3346207),DRSC00385,0.56,0.06
CG7567 (GeneID 43479),DRSC16258,-1.01,-0.3
Gr77a (GeneID 117476),DRSC11446,-0.25,1.06
Mlc-c (GeneID 31474),DRSC18683,-0.61,-0.58
MetRS (GeneID 37177),DRSC22533,-0.32,0.89
Hsc70-5 (GeneID 36583),DRSC07442,0.22,0.07
CG18367 (GeneID 37255),DRSC06545,0.29,0.01
MED17 (GeneID 42175),DRSC16889,2.12,3.76
CG16727 (GeneID 42338),DRSC15139,0.78,0.88
Rpn5 (GeneID 40717),DRSC12367,-2.58,-3.02
CG15317 (GeneID 31898),DRSC18005,0.99,0.64
Idh3a (GeneID 32940),DRSC19446,-0.01,0.13
CG4849 (GeneID 43358),DRSC15662,2.64,-2.68
CG32845 (GeneID 318243),DRSC07867,0.21,0.47
CG14567 (GeneID 40420),DRSC11728,0.33,0.42
mlt (retired record) (GeneID 44912),DRSC06120,-0.1,0.45
shn (GeneID 36171),DRSC05266,-0.05,0
shn (GeneID 36171),DRSC07681,-4.2,-4.02

8 consecutive reagents already listed:
gene,amplicon,"replicate 1, z-score of dpERK with insulin","replicate 2, z-score of dpERK with insulin"
MetRS (GeneID 37177),DRSC22533,-0.32,0.89
Hsc70-5 (GeneID 36583),DRSC07442,0.22,0.07
CG18367 (GeneID 37255),DRSC06545,0.29,0.01
MED17 (GeneID 42175),DRSC16889,2.12,3.76
CG16727 (GeneID 42338),DRSC15139,0.78,0.88
Rpn5 (GeneID 40717),DRSC12367,-2.58,-3.02
CG15317 (GeneID 31898),DRSC18005,0.99,0.64
Idh3a (GeneID 32940),DRSC19446,-0.01,0.13
